Laboratory results: PubChem BioAssay AID743454 (Peter MacCallum Cancer Centre, 2014)
This is a random part of about 18,000 reagents. In the full data, 450 (2.5%) were called active. 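Single biological run; no consistent viability z cut-off exists, so the class columns, not z-scores, define the calls.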

- Test: 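Knock-downs lowering viability or raising caspase 3/7 activity in vorinostat-treated resistant cells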 (primary screen)
- System: human HCT116-VR colon cancer cells, selected for vorinostat resistance
- Reagents: siRNA pool against human genes, 40 nM siRNA pool
- Duration: vorinostat for 24 h, read-out about 72 h after transfection
- Challenge: vorinostat at 2.5 µM final
- Read-out: 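Two measures, CellTiter-Fluor viability and luminescent caspase 3/7 activity, each as fold change against same-plate mock wells, mean of duplicates, then screen-wide robust z-score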
- Reading the numbers: viability robust z-score: higher = more viable cells than screen typical; caspase robust z-score: higher = more caspase 3/7 activity than screen typical
- Active means: 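Hits are knock-downs in viability class RV1/RV2 or caspase class CA1/CA2, excluding ones that killed cells in the no-drug cell-count arm; hits then retested with single siRNAs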

| gene symbol | viability hit class | caspase hit class | viability robust z-score | caspase robust z-score | call |
| --- | --- | --- | --- | --- | --- |
| SNRPF (small nuclear ribonucleoprotein polypeptide F) | no change | no change | -3.26 | -0.6 | inactive |
| PRKCI (protein kinase C iota) | no change | no change | 0.8 | -0.6 | inactive |
| TIMM21 (translocase of inner mitochondrial membrane 21) | no change | no change | 0.65 | -0.22 | inactive |
| KIN (Kin17 DNA and RNA binding protein) | no change | no change | 0.54 | 0.18 | inactive |
| STEAP3 (STEAP3 metalloreductase) | no change | no change | -0.14 | -0.66 | inactive |
| ACTL7A (actin like 7A) | no change | no change | -0.82 | -0.6 | inactive |
| GRM7 (glutamate metabotropic receptor 7) | no change | no change | -0.22 | -0.02 | inactive |
| YME1L1 (YME1 like 1 ATPase) | no change | no change | -2.17 | -0.66 | inactive |
| AGAP7P | no change | no change | -0.09 | -0.58 | inactive |
| ANAPC11 (anaphase promoting complex subunit 11) | no change | no change | -0.76 | -0.01 | inactive |
| USP38 (ubiquitin specific peptidase 38) | no change | no change | -1.41 | 1.55 | inactive |
| OR5B12 (olfactory receptor family 5 subfamily B member 12) | no change | no change | -0.03 | 0.88 | inactive |
| GTF2A1 (general transcription factor IIA subunit 1) | no change | no change | -0.43 | 0.16 | inactive |
| SYT17 (synaptotagmin 17) | no change | no change | 0.25 | -1.36 | inactive |
| TOP6BL (TOP6B like initiator of meiotic double strand breaks) | no change | no change | 0.47 | -1.18 | inactive |
| INSL4 (insulin like 4) | no change | no change | 1.96 | -0.05 | inactive |
| FUT5 (fucosyltransferase 5) | no change | no change | 1.39 | -0.29 | inactive |
| RNF144B (ring finger protein 144B) | no change | no change | -1.38 | -0.5 | inactive |
| ADGRG7 (adhesion G protein-coupled receptor G7) | no change | no change | 0.77 | -0.68 | inactive |
| FHL3 (four and a half LIM domains 3) | no change | no change | -0.27 | -0.4 | inactive |
| SHROOM2 (shroom family member 2) | no change | no change | 0.42 | 0.62 | inactive |
| GSG1 (germ cell associated 1) | no change | no change | -0.63 | 0.26 | inactive |
| PGM2 (phosphoglucomutase 2) | no change | no change | 0.09 | -0.64 | inactive |

Taken from above.
Value of SYT17 (synaptotagmin 17) under “caspase robust z-score”: -1.36
Entry of YME1L1 (YME1 like 1 ATPase) in “call”: inactive
TOP6BL (TOP6B like initiator of meiotic double strand breaks), call → inactive
